Results on three substances are retold here after patent publication EP1071442B9 (priority 1998, dated 1999).

Some peptides are written in HELM: one residue between dots, names in brackets for other building blocks, links after the first $.

A short description of the data set: general procedure: hybrid (solid and solution phase) peptide synthesis; 2-chlorotrityl chloride resin (super acid sensitive); HBTU/HOBT/DIEA (solid phase); HBTU/HOAT/EtPr2N (solution phase).

“PEPTIDE1{[Fmoc].[Asp(tBu)].[Lys(Boc)].[Trp(Boc)].A.[Ser(tBu)].L.[Trp(Boc)].[Asn(trt)].[Trp(Boc)].F.[am]}$$$$V2.0”: the “crude HPLC purity” value came to 93A% (coupling step, 260 nm) and 87.IA% (coupling step, HPLC, Phenomenex Jupiter C5, 260 nm). The step yield (coupling step, run 1) was found to be 100%.

In the case of “PEPTIDE1{[Fmoc].[Glu(tBu)].[Lys(Boc)].[Asn(trt)].[Glu(tBu)].[Gln(trt)].[Glu(tBu)].L.L.[Glu(tBu)].L.[Asp(tBu)].[Lys(Boc)].[Trp(Boc)].A.[Ser(tBu)].L.[Trp(Boc)].[Asn(trt)].[Trp(Boc)].F.[am]}$$$$V2.0”, under “coupling step, 260 nm”, the “final HPLC purity” value amounted to 95.5A%. Also, the step yield by setting is: (coupling step, run 1) 90%; (coupling step, run 2) 84.3%; (coupling step, run 3) 85%.

In the case of “PEPTIDE1{[Fmoc].[Glu(tBu)].[Lys(Boc)].[Asn(trt)].[Glu(tBu)].[Gln(trt)].[Glu(tBu)].L.L.[Glu(tBu)].L}$$$$V2.0”, the “crude HPLC purity” value (whole synthesis, HPLC, Phenomenex Jupiter C5, 260 nm) turned out to be 97%. For the same substance, under “whole synthesis, HPLC, Phenomenex Jupiter C5, 260 nm, run 1”, the “final HPLC purity” value came to 96%. Under “whole synthesis, run 1”, this substance displayed a crude yield of 8% and an isolated yield of 90%. For the same substance, under “whole synthesis, run 2”, the crude yield came out at 105% and the isolated yield is on record as 90.6%.
